Reference: PubChem BioAssay AID328 (DTP/NCI, 2004)
The list shows only some results of the screen, not a fair sample: it is rich in T/C values a quarter to a half above the control, in often repeated tests (any T/C) and in doses without a T/C. Other doses and runs of a compound stand elsewhere. T/C: endpoint of the treated group in % of that of the vehicle group. Some doses have a count of surviving animals in place of a T/C: the source holds a T/C of zero for them, seemingly a mark for toxic or unscored doses. Some doses without a T/C left all or most animals alive at the check, yet need not have been tolerated: survival well below the control is almost never listed, so the zero probably covers shortened survival too. Counts of survivors are from the toxicity check (mostly the fifth day) where no day follows; animals may have died later. Schedule codes are those of the source, read here as Q, the interval in days (D) or hours (H), X, the number of doses. Some entries hold several experiments; their values stand side by side, smallest first. Where survival is the endpoint, this PubChem deposit counts one and a half times the control or more as active, and values a quarter to a half above the control carry no call in these data; other NCI protocols may use other cut-offs. Some T/C values are followed by the survivors on the day toxicity was checked, most often the fifth; without a count, all were alive then.

Test system: BDF1 mice, P388 leukemia ip, median survival T/C
Test: NCI In Vivo Anticancer Drug Screen. Data for tumor model P388 Leukemia (intraperitoneal) in B6D2F1 (BDF1) mice
Conditions: T/C endpoint: median survival time, higher T/C = longer survival
Procedure, shortened: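 Vehicle-dosed animals serve as the reference; survival of compound-dosed, tumour-implanted mice is divided by it.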

[1] = dose: 100.0 mg/kg/injection, schedule: Q04DX003 (ip), vehicle: saline
[2] = dose: 200.0 mg/kg/injection, schedule: Q04DX003 (ip), vehicle: saline
[3] = dose: 400.0 mg/kg/injection, schedule: Q01DX009 (ip), vehicle: saline
[4] = dose: 12.5 mg/kg/injection, schedule: Q04DX003 (ip), vehicle: saline
[5] = dose: 50.0 mg/kg/injection, schedule: Q04DX003 (ip), vehicle: saline
[6] = dose: 50.0 mg/kg/injection, schedule: Q01DX009 (ip), vehicle: saline with Tween-80
[7] = dose: 100.0 mg/kg/injection, schedule: Q01DX009 (ip), vehicle: saline with Tween-80
[8] = dose: 400.0 mg/kg/injection, schedule: Q01DX009 (ip), vehicle: water

`COc1cc([C@@H]2c3cc4c(cc3[C@H](OC3OC5COC(c6ccccc6)OC5C(O)C3O)[C@H]3COC(=O)[C@H]23)OCO4)cc(OC)c1OC` (stereo partly drawn) was tested, and the survivor count (dose: 100.0 mg/kg/injection, schedule: Q01DX010 (ip), vehicle: carboxymethylcellulose (CMC)) was 6 of 6, the survivor count (dose: 200.0 mg/kg/injection, schedule: Q01DX010 (ip), vehicle: carboxymethylcellulose (CMC)) was 6 of 6 and the survivor count (dose: 400.0 mg/kg/injection, schedule: Q01DX010 (ip), vehicle: carboxymethylcellulose (CMC)) was 0 of 6.

`CNC(=O)OCc1c(COC(=O)NC)c(-c2ccc(F)cc2)n2c1CCC2` was tested, and the T/C (dose: 0.78 mg/kg/injection, schedule: Q01DX009 (ip), vehicle: Klucel (hydroxypropylcellulose) (HPC)) was 146 % of control, the T/C (dose: 3.13 mg/kg/injection, schedule: Q01DX009 (ip), vehicle: Klucel (hydroxypropylcellulose) (HPC)) was 141 % of control and the T/C (dose: 6.25 mg/kg/injection, schedule: Q01DX009 (ip), vehicle: Klucel (hydroxypropylcellulose) (HPC)) was 137 % of control. For the same compound, the T/C (dose: 12.5 mg/kg/injection, schedule: Q01DX009 (ip), vehicle: Klucel (hydroxypropylcellulose) (HPC)) was 128 % of control [5 of 6 alive].

For `CC#CCOCC(O)CCl` (stereo not drawn), the T/C [1] was 135 % of control, the survivor count [2] was 3 of 6 and the survivor count [3] was 0 of 6.

For `CCCCCCCCCCCc1n(Cc2ccccc2)cc[n+]1C`, the survivor count (dose: 6.0 mg/kg/injection, schedule: Q04DX003 (ip), vehicle: saline) was 6 of 6, the survivor count [4] was 3 of 6 and the survivor count (dose: 25.0 mg/kg/injection, schedule: Q04DX003 (ip), vehicle: saline) was 0 of 6. The survivor count [5] was 0 of 6, the survivor count [1] was 0 of 6 and the survivor count [2] was 0 of 6. For the same compound, the survivor count (dose: 400.0 mg/kg/injection, schedule: Q04DX003 (ip), vehicle: saline) was 0 of 6.

`C=CC12COC(=O)C(=C)C1C1OC(=O)C(=C)C1C(O)C2` (stereo not drawn) was tested, and the T/C (dose: 2.5 mg/kg/injection, schedule: Q01DX009 (ip), vehicle: saline + alcohol) was 131 % of control, the T/C (dose: 3.0 mg/kg/injection, schedule: Q01DX010 (ip), vehicle: carboxymethylcellulose (CMC)) was 126 % of control [5 of 6 alive] and the T/C (dose: 4.0 mg/kg/injection, schedule: Q01DX009 (ip), vehicle: water) was 145 % of control. The T/C (dose: 5.0 mg/kg/injection, schedule: Q01DX009 (ip), vehicle: saline + alcohol) was 136 % of control, the survivor count (dose: 7.0 mg/kg/injection, schedule: Q01DX010 (ip), vehicle: carboxymethylcellulose (CMC)) was 3 of 6 and the survivor count (dose: 10.6 mg/kg/injection, schedule: Q01DX010 (ip), vehicle: carboxymethylcellulose (CMC)) was 2 of 6. The survivor count (dose: 16.0 mg/kg/injection, schedule: Q01DX010 (ip), vehicle: carboxymethylcellulose (CMC)) was 0 of 6, the T/C (dose: 20.0 mg/kg/injection, schedule: Q01DX009 (ip), vehicle: saline + alcohol) was 127 % of control and the survivor count (dose: 24.0 mg/kg/injection, schedule: Q01DX010 (ip), vehicle: carboxymethylcellulose (CMC)) was 0 of 6.

In the case of `FC(F)(F)/C([S-])=C(/[S-])C(F)(F)F.FC(F)(F)/C([S-])=C(/[S-])C(F)(F)F.FC(F)(F)/C([S-])=C(/[S-])C(F)(F)F.FC(F)(F)/C([S-])=C(/[S-])C(F)(F)F.[Co+3].[Co+3]`, the T/C (dose: 50.0 mg/kg/injection, schedule: Q04DX003 (ip), vehicle: other) was 140 % of control.

`CCCOP(=O)(OCCC)C(OC(=O)C(C)C)=C(C)C` was tested, and the survivor count (dose: 400.0 mg/kg/injection, schedule: Q04DX003 (ip), vehicle: saline with Tween-80) was 2 of 6.

With `O=C1c2ccccc2C(=O)c2c(O)c(N3CCOCC3)cc(O)c21` the survivor count (dose: 1.56 mg/kg/injection, schedule: Q01DX009 (ip), vehicle: saline) was 6 of 6, the survivor count (dose: 3.12 mg/kg/injection, schedule: Q01DX009 (ip), vehicle: saline) was 6 of 6 and the survivor count (dose: 6.25 mg/kg/injection, schedule: Q01DX009 (ip), vehicle: saline) was 6 of 6. The survivor count (dose: 12.5 mg/kg/injection, schedule: Q01DX009 (ip), vehicle: saline) was 5 of 6 and the survivor count (dose: 25.0 mg/kg/injection, schedule: Q01DX009 (ip), vehicle: saline) was 6 of 6.

`O=P(N1CCCCC1)(N1CC1)N1CC1` was tested, and the T/C (dose: 5.0 mg/kg/injection, schedule: Q01DX009 (ip), vehicle: saline) was 134 % of control, the T/C [4] was 129 % of control and the survivor count [5] was 3 of 6.

`Cc1nc(N)c2nc(SCc3ccc(Cl)cc3)c(N)nc2n1` was tested, and the survivor count (dose: 100.0 mg/kg/injection, schedule: Q04DX003 (ip), vehicle: saline with Tween-80) was 6 of 6.

For `COc1cc(NC(C)CCCN)c2ncccc2c1Sc1ccc(Cl)cc1` (stereo not drawn), the survivor count [6] was 0 of 6, the survivor count [7] was 0 of 6 and the survivor count (dose: 200.0 mg/kg/injection, schedule: Q01DX009 (ip), vehicle: saline with Tween-80) was 0 of 6.

With `COc1c(Br)cc(Br)cc1/C=C/[N+](=O)[O-]` the T/C (dose: 12.5 mg/kg/injection, schedule: Q01DX009 (ip), vehicle: saline with Tween-80) was 127 % of control, the survivor count (dose: 25.0 mg/kg/injection, schedule: Q01DX009 (ip), vehicle: saline with Tween-80) was 6 of 6 and the survivor count [6] was 2 of 6 and 5 of 6. The survivor count [7] was 3 of 6.

`COC(=O)CC1CCN(C(=O)OCc2ccccc2)C(Cc2c[nH]c3ccccc23)C1=O` (stereo not drawn) was tested, and the T/C (dose: 6.0 mg/kg/injection, schedule: Q01DX009 (ip), vehicle: saline) was 126 % of control.

In the case of `N#Cc1ccc(-c2ccc(C#N)cc2Br)c(Br)c1`, the T/C (dose: 50.0 mg/kg/injection, schedule: Q01DX009 (ip), vehicle: Klucel (hydroxypropylcellulose) (HPC)) was 125 % of control, the survivor count (dose: 200.0 mg/kg/injection, schedule: Q01DX009 (ip), vehicle: Klucel (hydroxypropylcellulose) (HPC)) was 6 of 6 and the survivor count (dose: 400.0 mg/kg/injection, schedule: Q01DX009 (ip), vehicle: Klucel (hydroxypropylcellulose) (HPC)) was 5 of 6.

In the case of `C=C(Cl)CSCC`, the survivor count (dose: 50.0 mg/kg/injection, schedule: Q01DX009 (ip), vehicle: acetone) was 1 of 6 and the survivor count (dose: 180.0 mg/kg/injection, schedule: Q01DX001 (ip), vehicle: saline) was 2 of 6.

In the case of `CCCC(NC(=O)OCc1ccccc1)C(=O)O` (stereo not drawn), the survivor count (dose: 400.0 mg/kg/injection, schedule: Q01DX009 (ip), vehicle: saline with Tween-80) was 3 of 6.

In the case of `Nc1ccc(Nc2ccccc2)c(S(=O)(=O)O)c1`, the T/C (dose: 100.0 mg/kg/injection, schedule: Q01DX009 (ip), vehicle: saline) was 133 % of control and the T/C (dose: 200.0 mg/kg/injection, schedule: Q01DX009 (ip), vehicle: saline) was 142 % of control.

With `CNCCN(C)CCN(C)Cc1ccc(OC)cc1` the T/C (dose: 25.0 mg/kg/injection, schedule: Q01DX009 (ip), vehicle: water) was 129 % of control, the T/C (dose: 50.0 mg/kg/injection, schedule: Q01DX009 (ip), vehicle: water) was 131 % of control and the T/C (dose: 100.0 mg/kg/injection, schedule: Q01DX009 (ip), vehicle: water) was 125 % of control. The survivor count [3] was 2 of 6, the T/C [8] was 135 % of control and the survivor count [8] was 0 of 6. The survivor count (dose: 500.0 mg/kg/injection, schedule: Q01DX009 (ip), vehicle: water) was 0 of 6.

For `C[C@H](N)[C@H](O)c1cccc(O)c1`, the survivor count (dose: 50.0 mg/kg/injection, schedule: Q01DX005 (ip), vehicle: saline) was 3 of 5, the survivor count (dose: 100.0 mg/kg/injection, schedule: Q01DX005 (ip), vehicle: saline) was 3 of 5 and the survivor count (dose: 200.0 mg/kg/injection, schedule: Q01DX005 (ip), vehicle: saline) was 2 of 5.

For `NC(Cn1cc(N(CCCl)CCCl)c(=O)[nH]c1=O)C(=O)O` (stereo not drawn), the survivor count (dose: 48.0 mg/kg/injection, schedule: Q01DX009 (ip), vehicle: saline) was 6 of 6.

`CC(=O)Nc1c2sscc-2n(C)c1=O` was tested, and the survivor count (dose: 1.56 mg/kg/injection, schedule: Q01DX009 (ip), vehicle: saline with Tween-80) was 1 of 6 and the survivor count (dose: 3.13 mg/kg/injection, schedule: Q01DX009 (ip), vehicle: saline with Tween-80) was 1 of 6.

`C#CCn1cnc2c(Cl)ncnc21` was tested, and the survivor count (dose: 200.0 mg/kg/injection, schedule: Q01DX009 (ip), vehicle: other) was 4 of 6 and the survivor count (dose: 400.0 mg/kg/injection, schedule: Q01DX009 (ip), vehicle: other) was 3 of 6.
